The assay deals with USP28 (Ubiquitin Specific Peptidase 28) (human (endogenous in HCT116)) (UniProt Q96RU2). Put plainly: co-IP.

By UniProt entry, the sequences of proteins in these tests, tags left out.
UniProt Q96RU2: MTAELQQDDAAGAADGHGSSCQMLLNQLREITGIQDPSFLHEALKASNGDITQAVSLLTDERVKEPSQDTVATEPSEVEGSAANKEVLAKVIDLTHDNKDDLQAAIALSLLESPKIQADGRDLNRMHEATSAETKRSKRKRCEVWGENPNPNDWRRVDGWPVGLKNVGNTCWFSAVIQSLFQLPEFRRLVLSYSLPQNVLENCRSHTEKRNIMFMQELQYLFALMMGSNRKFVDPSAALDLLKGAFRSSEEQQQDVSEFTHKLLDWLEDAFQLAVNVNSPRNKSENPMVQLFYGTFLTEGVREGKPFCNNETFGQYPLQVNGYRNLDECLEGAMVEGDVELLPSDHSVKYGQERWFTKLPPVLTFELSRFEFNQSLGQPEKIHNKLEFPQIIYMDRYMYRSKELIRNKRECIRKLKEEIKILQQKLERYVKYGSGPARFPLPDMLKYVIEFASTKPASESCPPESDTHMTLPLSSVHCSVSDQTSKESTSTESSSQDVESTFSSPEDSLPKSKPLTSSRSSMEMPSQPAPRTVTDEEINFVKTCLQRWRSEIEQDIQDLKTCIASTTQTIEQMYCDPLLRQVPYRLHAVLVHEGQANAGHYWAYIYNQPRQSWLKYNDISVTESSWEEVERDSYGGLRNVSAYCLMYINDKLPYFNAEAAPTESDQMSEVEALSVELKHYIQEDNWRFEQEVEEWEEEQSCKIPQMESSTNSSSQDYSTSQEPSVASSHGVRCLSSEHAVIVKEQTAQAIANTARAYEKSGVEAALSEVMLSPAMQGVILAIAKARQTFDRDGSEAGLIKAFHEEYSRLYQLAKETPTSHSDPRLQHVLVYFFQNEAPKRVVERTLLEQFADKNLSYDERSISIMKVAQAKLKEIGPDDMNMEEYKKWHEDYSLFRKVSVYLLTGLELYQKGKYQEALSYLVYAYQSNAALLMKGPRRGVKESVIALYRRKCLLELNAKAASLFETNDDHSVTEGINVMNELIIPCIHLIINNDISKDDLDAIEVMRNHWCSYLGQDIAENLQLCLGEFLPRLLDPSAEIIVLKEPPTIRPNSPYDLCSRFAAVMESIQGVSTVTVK
UniProt Q14980: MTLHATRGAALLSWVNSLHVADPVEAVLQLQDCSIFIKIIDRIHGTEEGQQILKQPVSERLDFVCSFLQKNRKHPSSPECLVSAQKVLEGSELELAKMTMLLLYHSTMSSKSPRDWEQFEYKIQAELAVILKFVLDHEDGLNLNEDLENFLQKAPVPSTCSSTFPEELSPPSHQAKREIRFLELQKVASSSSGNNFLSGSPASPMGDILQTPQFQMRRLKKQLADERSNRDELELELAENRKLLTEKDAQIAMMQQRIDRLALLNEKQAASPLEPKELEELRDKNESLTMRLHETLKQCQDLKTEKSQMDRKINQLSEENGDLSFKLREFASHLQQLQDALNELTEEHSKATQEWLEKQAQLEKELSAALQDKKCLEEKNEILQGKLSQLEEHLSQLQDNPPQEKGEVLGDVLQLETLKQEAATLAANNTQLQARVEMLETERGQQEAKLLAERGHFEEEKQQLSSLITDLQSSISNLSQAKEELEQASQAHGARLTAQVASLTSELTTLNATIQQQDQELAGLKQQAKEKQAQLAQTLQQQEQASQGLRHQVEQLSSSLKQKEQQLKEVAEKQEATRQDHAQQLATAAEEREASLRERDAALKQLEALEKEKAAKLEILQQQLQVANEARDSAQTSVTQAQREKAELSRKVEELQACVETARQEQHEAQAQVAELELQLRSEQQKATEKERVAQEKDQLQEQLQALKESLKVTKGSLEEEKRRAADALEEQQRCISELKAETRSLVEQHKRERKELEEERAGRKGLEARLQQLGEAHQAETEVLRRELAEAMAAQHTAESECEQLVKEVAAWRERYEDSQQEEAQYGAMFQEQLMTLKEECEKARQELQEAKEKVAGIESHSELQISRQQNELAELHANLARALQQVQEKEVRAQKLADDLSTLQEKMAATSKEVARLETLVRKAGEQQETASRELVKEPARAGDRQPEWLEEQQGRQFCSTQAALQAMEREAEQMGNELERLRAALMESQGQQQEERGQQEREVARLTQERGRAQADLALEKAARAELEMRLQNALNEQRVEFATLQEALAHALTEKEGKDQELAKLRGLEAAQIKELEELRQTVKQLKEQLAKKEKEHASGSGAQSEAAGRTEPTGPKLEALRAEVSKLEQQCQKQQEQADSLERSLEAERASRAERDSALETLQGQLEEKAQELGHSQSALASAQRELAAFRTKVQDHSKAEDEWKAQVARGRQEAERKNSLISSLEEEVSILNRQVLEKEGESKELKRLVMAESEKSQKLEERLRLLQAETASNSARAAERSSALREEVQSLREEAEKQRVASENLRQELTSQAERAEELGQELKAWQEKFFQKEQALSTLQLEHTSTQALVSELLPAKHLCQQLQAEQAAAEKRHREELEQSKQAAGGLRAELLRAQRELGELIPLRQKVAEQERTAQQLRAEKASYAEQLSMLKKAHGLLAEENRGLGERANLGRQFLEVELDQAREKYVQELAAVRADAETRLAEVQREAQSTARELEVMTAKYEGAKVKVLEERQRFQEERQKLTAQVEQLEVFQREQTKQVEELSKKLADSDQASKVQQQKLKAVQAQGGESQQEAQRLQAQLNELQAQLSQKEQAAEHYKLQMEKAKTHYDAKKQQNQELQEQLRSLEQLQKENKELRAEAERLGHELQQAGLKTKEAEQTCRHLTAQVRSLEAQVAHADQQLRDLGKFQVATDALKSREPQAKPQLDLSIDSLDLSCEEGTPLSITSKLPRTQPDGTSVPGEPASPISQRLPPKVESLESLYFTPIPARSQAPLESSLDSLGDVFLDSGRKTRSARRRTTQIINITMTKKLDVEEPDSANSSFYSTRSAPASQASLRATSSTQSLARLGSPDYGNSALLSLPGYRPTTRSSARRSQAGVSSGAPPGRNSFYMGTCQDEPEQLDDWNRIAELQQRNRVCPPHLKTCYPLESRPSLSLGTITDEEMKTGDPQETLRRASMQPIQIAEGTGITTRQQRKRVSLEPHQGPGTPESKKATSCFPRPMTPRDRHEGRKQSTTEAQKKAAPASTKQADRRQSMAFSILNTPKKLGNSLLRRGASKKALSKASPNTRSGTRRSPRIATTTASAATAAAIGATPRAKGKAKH

Results are given in words; binding and its absence hold for the method and conditions named. In cells and extracts the contact can be indirect. Some results given as binding are weak or reduced against the parent protein; the word gives no strength.

Consider “Nuclear mitotic apparatus protein 1 (NuMA1) (from UniProt Q14980 1-2115)”, for which the binding result is given as “binds”.

For the origin of these results see article doi:10.1101/2020.09.18.303834.
